Values after ≈ are worked out from the molar mass of the structure shown.
Legend:
[1] = test system: Vibrio fischeri; assay: microbe, parasite or virus in culture; format: cell-based; settings: Aliivibrio fischeri
Experimental: (§1) Stock solutions and dilutions were prepared in 2% NaCl in 0.02 M phosphate buffer, pH 7. The freeze-dried bacteria were rehydrated prior to testing in a reactivation solution. Culture suspensions and diluted samples were pre-incubated at 15 °C for 15 min. After the initial luminescence was measured, 0.5 mL of the culture suspension was mixed with the same volume of a diluted sample. The final bioluminescence was measured after 30 min. Incubation was kept at 15 °C (LUMIStox 300 meter, Dr. Lange GmbH, Berlin, Germany). The relative toxicity of the samples was expressed as a percentage of luminescence inhibition compared to the controls.
as §1, with “m,” for “meter,”

[2] = test system: Daphnia magna; assay: D. magna acute immobilization test; format: in vivo; settings: 48 h, read-out: EC50 D. magna (with confidence interval 2.5–97.5%)
Experimental: (§2) All tests were carried out in accordance with the OECD or ISO guidelines. In general the experimental part was divided into three main steps: (i) determination of the toxicity of the native forms of pharmaceuticals (their racemic mixtures), (ii) toxicity evaluation of the selected TPs of these pharmaceuticals, and (iii) preliminary toxicity assessment of the enantiomers of selected pharmaceuticals. For each assay, range-finding tests were conducted, in order to determine the range of concentrations for the definitive tests. The main tests were repeated three times in at least two parallel replicates, with a minimum of five concentrations for native forms of the selected pharmaceuticals (including their enantiomers). The exact number of replicates and concentrations tested was included in the description of each test. […] However, TPs were tested in a different manner; first, the tests were carried out at the limit concentration of 100 mg L^−1. […] Such approach was applied in order to observe the relative toxicity of the selected TP and its native form.
Dose-response curves were fitted using a linear logistic or logistic model (the model giving the best fit was chosen) (https://cran.r-project.org/web/packages/drfit/drfit.pdf). The mathematic formulas applied for this purpose are presented and described in the Supplementary Material. […]

[3] = test system: Lemna minor; assay: L. minor growth inhibition test
Experimental: All tests were carried out in accordance with the OECD or ISO guidelines. In general the experimental part was divided into three main steps: (i) determination of the toxicity of the native forms of pharmaceuticals (their racemic mixtures), (ii) toxicity evaluation of the selected TPs of these pharmaceuticals, and (iii) preliminary toxicity assessment of the enantiomers of selected pharmaceuticals. For each assay, range-finding tests were conducted, in order to determine the range of concentrations for the definitive tests. The main tests were repeated three times in at least two parallel replicates, with a minimum of five concentrations for native forms of the selected pharmaceuticals (including their enantiomers). The exact number of replicates and concentrations tested was included in the description of each test. […] However, TPs were tested in a different manner; first, the tests were carried out at the limit concentration of 100 mg L^−1. […]
One week before the assay, the inoculum cultures were prepared; eight healthy plants were placed into a new portion of the medium. […] The test started with one plant consisting of three fronds and the measured endpoint was the inhibition of growth rate determined by comparing the frond area (mm^2) for the treated plants and untreated controls.

[4] = test system: Raphidocelis subcapitata; assay: R. subcapitata reproduction (growth) inhibition test; format: cell-based
Experimental: as §2, with “form. […]” for “form.”
Test organisms were provided from Algal Culture Collection (Universität Göttingen, Germany). […] Growth inhibition was calculated using the cell counts of the treated samples in relation to the untreated controls after 72 h of exposure. The cells were counted with the use of CASY TT Cell counter & analyzer.

[5] = test system: Arthrobacter globiformis; assay: A. globiformis dehydrogenase inhibition test (version without soil); settings: read-out: EC50 A. globiformis
Experimental: All tests were carried out in accordance with the OECD or ISO guidelines. In general the experimental part was divided into three main steps: (i) determination of the toxicity of the native forms of pharmaceuticals (their racemic mixtures), (ii) toxicity evaluation of the selected TPs of these pharmaceuticals, and (iii) preliminary toxicity assessment of the enantiomers of selected pharmaceuticals. For each assay, range-finding tests were conducted, in order to determine the range of concentrations for the definitive tests. The main tests were repeated three times in at least two parallel replicates, with a minimum of five concentrations for native forms of the selected pharmaceuticals (including their enantiomers). The exact number of replicates and concentrations tested was included in the description of each test. […]
The test strain was obtained from the German Collection of Microorganisms (DSMZ). […] Finally, the dehydrogenase activity was determined by measuring the formation of resorufin from resazurine using a fluorimeter ([…]). Dehydrogenase inhibition was calculated using Eq. 1.
where FBTS is the measured fluorescence of the blank (medium) with the tested substance, FTS is the measured fluorescence of the sample, FBNC is the measured fluorescence of the blank, and FNC is the measured fluorescence of the negative control (with bacteria).

[6] = test system: aquatic organisms; settings: for the organisms named in the sentence
[7] = test system: D. magna; settings: cited from earlier work
[8] = test system: R. subcapitata; settings: ref Romanucci et al. (2019); cited from earlier work

SMILES: COc1cccc(C2(O)CCCCC2CN(C)C)c1 (stereo not drawn) [TRA, Tramadol]
- EC50 ([1]; 0.5 h, read-out: EC50 V. fischeri (with confidence interval 2.5–97.5%)): > 100 µg/mL
- inhibition at 100 µg/mL ([1]; read-out: Luminescence inhibition): 1%
- EC50 [2]: 69.7 µg/mL (≈ 265 µM)
- EC50 ([3]; 168 h, read-out: EC50 L. minor (with confidence interval 2.5–97.5%)): > 100 µg/mL
- inhibition at 100 µg/mL ([3]; read-out: Growth inhibition of L. minor): 2%
- EC50 ([4]; 72 h, read-out: EC50 R. subcapitata (with confidence interval 2.5–97.5%)): 58.7 µg/mL (≈ 223 µM)
- inhibition at 100 µg/mL ([4]; read-out: Growth inhibition of R. subcapitata): 93%
- EC50 [5]: > 100 µg/mL
- classification on the basis of EC50 values (EC 93/67/EEC) [6]: harmful
- EC50, 24h D. magna ([7]; 24 h, ref Romanucci et al. (2019)): 88.5 mg/L (≈ 336 µM)
- EC50 D. magna ([7]; ref Le et al. (2011)): 170 mg/L (≈ 645 µM)
- EC50 R. subcapitata [8]: 87.1 mg/L (≈ 331 µM)

From article PMC7332481, “Ecotoxicity screening evaluation of selected pharmaceuticals and their transformation products towards various organisms” (Environmental Science and Pollution Research International, 2020)
